Measurements: patent US20040053786A1, “Insecticidal 1,8-naphthalenedicarboxamides” (priority 2000, published 2004)
Some entries share one result that the patent states for a list of compounds. For part of these data: At least one structure is not confirmed: it was looked up by name or label, or the drawing left a doubt.

Assays:
Format in all cases: in vivo
[1] = system: tobacco budworm (Heliothis virescens); experiment: Test B: control of tobacco budworm on cotton plant, foliar spray; settings: sprayed at 250 ppm; cotton plant pre-infested with larvae; visually rated as in Test A
[2] = system: beet armyworm (Spodoptera exigua); experiment: Test D: control of beet armyworm on corn plant, foliar spray; settings: sprayed at 250 ppm; corn plant pre-infested with 10-15 1-day-old larvae; visually rated as in Test A
[3] = system: fall armyworm (Spodoptera frugiperda); experiment: Test A: control of fall armyworm on corn plant, foliar spray; settings: sprayed at 250 ppm; corn plant pre-infested with 10-15 1-day-old larvae; visually assessed after 6 days at 25° C., 70% relative humidity
[4] = system: diamondback moth (Plutella xylostella); experiment: Test C: control of diamondback moth on radish plant, foliar spray; settings: sprayed at 250 ppm; radish plant pre-infested with 10-15 neonate larvae; visually rated as in Test A

Compound	plant protection (feeding damage) [4] [%]	also measured
CNC(=O)c1cccc2cccc(C(=O)Nc3ccc(F)cc3C)c12 [Compound 1]	≤ 10	plant protection (feeding damage) [1]: ≤ 10%; plant protection (feeding damage) [2]: ≤ 10%; plant protection (feeding damage) [3]: ≤ 10%
CNC(=O)c1cccc2cccc(C(=O)Nc3ccc(Cl)cc3C)c12 [Compound 7]		plant protection (feeding damage) [1]: ≤ 10%; plant protection (feeding damage) [3]: ≤ 10%
CNC(=O)c1cccc2cccc(C(=O)Nc3ccc(OC(F)(F)F)cc3C)c12 [Compound 11]		plant protection (feeding damage) [3]: ≤ 10%
CNC(=O)c1cccc2cccc(C(=O)Nc3ccc(OC(F)(F)F)cc3)c12 [Compound 12]	≤ 10	
CNC(=O)c1cccc2cccc(C(=O)Nc3cc(Cl)ccc3C)c12 [Compound 14]	≤ 10	
CNC(=O)c1cccc2cccc(C(=O)Nc3ccccc3C)c12 [Compound 16]	≤ 10	plant protection (feeding damage) [1]: ≤ 10%; plant protection (feeding damage) [3]: ≤ 10%
CNC(=O)c1cccc2cccc(C(=O)Nc3ccccc3F)c12 [Compound 24]	≤ 10	
CNC(=O)c1cccc2cccc(C(=O)Nc3cccc(Cl)c3)c12 [Compound 37]	≤ 10	
CNC(=O)c1cccc2cccc(C(=O)Nc3cccc(C)c3C)c12 [Compound 40]		plant protection (feeding damage) [2]: ≤ 10%
CNC(=O)c1cccc2cccc(C(=O)Nc3ccc(C)cc3C)c12 [Compound 48]	≤ 10	plant protection (feeding damage) [3]: ≤ 10%
CNC(=O)c1cccc2cccc(C(=O)Nc3cccc([N+](=O)[O-])c3C)c12 [Compound 51]	≤ 10	
CNC(=O)c1cccc2cccc(C(=O)Nc3ccc(C)cc3)c12 [Compound 54]	≤ 10	plant protection (feeding damage) [2]: ≤ 10%
CNC(=O)c1cccc2cccc(C(=O)Nc3ccc(OC(C)C)cc3)c12 [Compound 55]	≤ 10	
CNC(=O)c1cccc2cccc(C(=O)Nc3ccc(F)cc3)c12 [Compound 56]	≤ 10	
CNC(=O)c1cccc2cccc(C(=O)Nc3ccccc3CC#N)c12 [Compound 61]	≤ 10	
CNC(=O)c1cccc2cccc(C(=O)Nc3ccc(Cl)cc3C)c12 [Compound 66]	≤ 10	
CNC(=O)c1cccc2cccc(C(=O)Nc3ccc(OC(F)(F)F)cc3C)c12 [Compound 67]	≤ 10	
CNC(=O)c1cccc2cccc(C(=O)Nc3ccc(C(F)(F)F)cc3C)c12 [Compound 69]	≤ 10	
CNC(=O)c1cccc2cccc(C(=O)Nc3ccc(C(F)(F)F)cc3)c12 [Compound 70]	≤ 10	
CNC(=O)c1cccc2cccc(C(=O)Nc3c(C)cccc3-c3nnnn3C)c12 [Compound 72]	≤ 10	
CNC(=O)c1cccc2cccc(C(=O)Nc3ccc(C)c([N+](=O)[O-])c3)c12 [Compound 75]	≤ 10	
CNC(=O)c1cccc2cccc(C(=O)Nc3cccc(F)c3C)c12 [Compound 81]	≤ 10	
CNC(=O)c1cccc2cccc(C(=O)Nc3ccc(F)c(F)c3)c12 [Compound 85]	≤ 10	
CNC(=O)c1cccc2cccc(C(=O)Nc3ccc(F)cc3Cl)c12 [Compound 86]	≤ 10	
CNC(=O)c1cccc2cccc(C(=O)Nc3ccccc3C(C)=O)c12 [Compound 89]	≤ 10	
CNC(=O)c1cccc2cccc(C(=O)Nc3ccccc3OC(F)(F)F)c12 [Compound 90]	≤ 10	
CNC(=O)c1cccc2cccc(C(=O)Nc3ccccc3SC(F)(F)F)c12 [Compound 91]	≤ 10	
CNC(=O)c1cccc2cccc(C(=O)Nc3cc(C4CC4)nn3C)c12 [Compound 93]	≤ 10	
